The list shows a part of the results. Shown are side measurements of this screen, not its main read-out; they come without a call. Compounds called inactive in the main read-out are mostly missing here. The note in brackets gives the kind of curve behind each potency; many fits are weak.
Assay: qHTS Assay for Lipid Storage Modulators in Drosophila S3 Cells;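 on cell number change: cells counted by Cell Tracker Red CMTPX staining in the red channel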
Conditions: BODIPY lipid droplet fluorescence, 18-24 h; for cell number change: measured here: cell count max response, cells fed with added oleic acid
Procedure, shortened: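 Laser-scanning cytometry quantifies lipid droplet accumulation (500–530 nm total intensity; droplet/cell object ratio) in oleic acid-fed (400 uM added) Drosophila S3 cells treated with a concentration series. 20 uM Triacsin C defined 100% inhibition.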

[1] = measured here: lipid fluorescence (Fed channel) AC50, cells fed with added oleic acid
[2] = measured here: cell number channel AC50, cells fed with added oleic acid

Row | SMILES | AC50 [1] | cell number change [%] | AC50 [2]
1 | O=C1c2ccccc2C(=O)N1CCCCCc1nc(-c2ccccc2)no1 | 0.58 µM [rising, single point] | – | –
2 | Cn1c(SCCN2CCOCC2)nc2sc3c(c2c1=O)CCCC3 | – | -24.4 | 0.0146 µM [falling, full curve, poor fit]
3 | CCCc1ccc2oc(C(=O)NCc3nnc(C)o3)c(C)c2c1 | – | -5.38 | –
4 | N#Cc1ccc(C(=O)Nc2ccc3ccccc3c2)cc1 | 11.6 µM [rising, single point] | 8.11 | –
5 | C[C@@]12CCC3[C@@](CCC4[C@@]3(C)CCC[C@@]4(C)C(=O)NCc3ccccc3)(CC1=O)C2 (some centres undefined) | 23.1 µM [falling, single point] | -30.1 | 5.8 µM [falling, single point]
6 | COc1ccccc1CN(C)C(=O)CNC(=O)c1cccc(Cl)c1 | – | 31.5 | 29.1 µM [rising, single point]
7 | CCc1ccc(N2CC(C)Cn3c2nc2c3c(=O)n(CCN3CCOCC3)c(=O)n2C)cc1 (centres undefined) | 4.11 µM [rising, partial curve, poor fit] | -5.57 | –
8 | CN1CCN(CCCNC(=O)c2ccc(CS(=O)(=O)c3ccc(Br)cc3)o2)CC1 | 0.13 µM [falling, full curve] | 2.45 | 0.00461 µM [falling, full curve]
9 | COc1ccc(CNC(=S)N/N=C/c2ccncc2)cc1 | 20.6 µM [rising, partial curve] | 19.5 | –
10 | CCCCNS(=O)(=O)c1ccc2nc(-c3cccnc3)cc(C(=O)NCCCN(CC)CC)c2c1 | 3.26 µM [falling, partial curve, poor fit] | -10.7 | –
11 | O=C(N/N=C/C=C\c1ccco1)c1ccccn1 | 1.64 µM [falling, partial curve] | -39.4 | 20.6 µM [falling, single point]
12 | Cc1sc2nc(SCC(=O)N3CCOCC3)[nH]c(=O)c2c1C | 0.651 µM [falling, single point] | – | 0.651 µM [falling, single point]
13 | COc1ccc(Oc2nccc(-c3ccccc3)c2C#N)cc1 | 0.366 µM [falling, single point] | 10.5 | –
14 | O=C(Nc1ccc2oc(-c3ccccc3)nc2c1)c1ccncc1 | 23.1 µM [falling, partial curve, poor fit] | -5.67 | 0.411 µM [falling, full curve, poor fit]
15 | CCOC(=O)C(NC(=O)c1ccccc1OCC)(Nc1ncccn1)C(F)(F)F (centres undefined) | 29.1 µM [rising, partial curve] | 58.6 | 32.6 µM [rising, partial curve, poor fit]
16 | O=C(Cn1c(=O)n(CC2CCCO2)c(=O)c2ccccc21)c1ccccc1 (centres undefined) | – | 120 | 6.51 µM [falling, single point]
17 | O=C(NC1CC2CCC(C1)N2C(=O)NCc1ccccc1)NC12CC3CC(CC(C3)C1)C2 (centres undefined) | 25.9 µM [rising, partial curve, poor fit] | – | –
18 | CC(Oc1ccc([N+](=O)[O-])cc1)C(=O)NCC1CCCO1 (centres undefined) | 29.1 µM [rising, single point] | 21.4 | –

Row | SMILES | AC50 [1] | cell number change [%] | AC50 [2]
19 | Nc1nnc(-c2cccc(F)c2)s1 | 0.13 µM [falling, full curve, poor fit] | 3.1 | 0.13 µM [falling, full curve, poor fit]
20 | Cc1ccc(CC2(O)CC(C)N(C)CC2C)c(C)c1 (centres undefined) | 0.461 µM [falling, full curve] | -28.8 | 0.82 µM [falling, full curve, poor fit]
21 | CN(C)C(CNC(=O)c1cccc(S(=O)(=O)Nc2ccc(Br)cc2)c1)c1ccco1 (centres undefined) | 29.1 µM [rising, single point] | – | –
22 | CSCCC(NC(=O)c1ccccc1Cl)C(=O)NCc1ccncc1 (centres undefined) | – | 24.3 | –
23 | Cc1ccc(-n2nc3c(c2NC(=O)c2ccco2)CS(=O)(=O)C3)c(C)c1 | 0.116 µM [rising, full curve, poor fit] | -9.27 | –
24 | CC(=O)Nc1ccc(OC(=O)Cc2ccc(Cl)cc2)cc1 | 2.91 µM [rising, partial curve] | 2.38 | –
25 | Cc1cc(C)c(NC(=O)CSCc2nc3sc(C)c(C)c3c(=O)[nH]2)c(Cl)c1 | 29.1 µM [falling, single point] | -49.9 | 29.1 µM [falling, single point]
26 | Cc1cc2nnc(SCC(=O)N3CCN(c4ccccc4)CC3)n2c(N)n1 | 6.51 µM [falling, single point] | -11.3 | –
27 | Cc1cc2ncn(S(=O)(=O)c3ccc(S(=O)(=O)N4CCOCC4)cc3)c2cc1C | 2.91 µM [rising, partial curve] | 227 | 10.3 µM [rising, partial curve]
28 | Cn1nc(-c2ccc(Cl)cc2)c2cc(C(=O)N3CCN(c4ccccn4)CC3)sc21 | 0.291 µM [rising, partial curve, poor fit] | – | 0.231 µM [rising, full curve, poor fit]
29 | Cc1onc(-c2ccccc2)c1-c1nnc(CN2CCN(S(=O)(=O)c3ccccc3)CC2)o1 | 29.1 µM [rising, partial curve] | -25.1 | –
30 | Cc1c(Cl)cccc1NC(=O)CS(=O)(=O)c1ccccc1 | 0.58 µM [rising, single point] | -11.5 | –
31 | Cc1cc(C)c(C)c(S(=O)(=O)N2CCC(C(=O)NC3=NCCS3)CC2)c1C | 20.6 µM [rising, single point] | 13.3 | –
32 | NC(=S)N/N=C/c1ccc(-c2cc(Cl)cc(Cl)c2)o1 | 0.146 µM [rising, full curve, poor fit] | -3 | –
33 | O=C(CN1C(=O)NC2(CCCCCC2)C1=O)c1cccs1 | 0.82 µM [rising, full curve] | -13.4 | –
34 | COc1cccc(/C=C2\SC(=S)N(N3C(=O)CCCC3=O)C2=O)c1 | 3.26 µM [falling, single point] | 14 | –
35 | CC(=O)N1N=C(c2cccc(NS(C)(=O)=O)c2)CC1c1cccs1 (centres undefined) | – | 31.1 | 29.1 µM [rising, single point]

Entries of single compounds from above. Order of values: AC50 [1] | cell number change [%] | AC50 [2]
`Cn1c(SCCN2CCOCC2)nc2sc3c(c2c1=O)CCCC3` is listed as – | -24.4 | 0.0146 µM [falling, full curve, poor fit]
`O=C(N/N=C/C=C\c1ccco1)c1ccccn1` is listed as 1.64 µM [falling, partial curve] | -39.4 | 20.6 µM [falling, single point]

Reference: PubChem BioAssay AID2685 (National Center for Advancing Translational Sciences (NCATS), 2010)
